According to US4957730A, “Antimycotic nail varnish” (Hoechst Aktiengesellschaft, priority 1985, dated 1990):
Some of these results come from one statement about several compounds together. Some ranges recur; such a range may be that of the whole group of compounds.

Test system: T. mentagrophytes
Test: penetration test on excised pig skin: growth inhibition in the lowest region of the horny layer
Details: in words, versus comparison compounds 1-3
Protocol: The test method for penetration capacity on excised skin from pigs enables the capacity to penetrate of an effective concentration of compounds horny tissue to be tested.
In the tests for the penetration capacity, the surface of shaved pieces of skin was first treated with 0.3% strength solutions of the compounds 1-8 and likewise with three similar compounds not claimed, in each case dissolved in a mixture of 1 ml of dimethyl sulfoxide and 9 ml of isopropanol, at room temperature and was washed again after 2 hours. The lowest region of the horny layer was then exposed by removing the superficial layers by peeling off with adhesive strips ten times in succession. The deep-lying horny layer now exposed was inoculated with virulent pathogens of nail mycoses (dermatophytes). Conclusions as to the level of the penetration capacity were drawn on the basis of the degree of growth inhibition found.
The results of these experiments are shown in Table 1 in comparison with the efficacy of the pyridone compounds against the highly virulent skin fungus Trichophyton mentagrophytes 109 (100/25) in the in vitro series dilution test and in the guinea pig trichophytosis model.
***Horny layer penetration: percentage growth inhibition by the substance
which has penetrated into the lowest part of the horny layer.
*Time between application of the product and stripping of the skin

Structure (SMILES)	penetration capacity (growth inhibition in the lowest region of the horny layer of pig skin)
CCCCCCCc1cc(C)cc(=O)n1O [Example 1]	considerably better penetration capacity than comparison compounds 1-3
CCCCC(CC)c1cc(C)cc(=O)n1O (centres unmarked) [Example 2]	considerably better penetration capacity than comparison compounds 1-3
Cc1cc(CC(C)CC(C)(C)C)n(O)c(=O)c1 (centres unmarked) [Example 3]	considerably better penetration capacity than comparison compounds 1-3
Cc1cc(C2CCCCC2)n(O)c(=O)c1 [Example 4]	considerably better penetration capacity than comparison compounds 1-3
Cc1cc(CCC2CCCCC2)n(O)c(=O)c1 [Example 5]	considerably better penetration capacity than comparison compounds 1-3
Cc1cc(C2CC3CCC2C3)n(O)c(=O)c1 (centres unmarked) [Example 6]	considerably better penetration capacity than comparison compounds 1-3
Cc1ccc(Cc2cc(C)c(C)c(=O)n2O)c(C)c1 [Example 7]	considerably better penetration capacity than comparison compounds 1-3
Cc1cc(CCc2ccccc2)n(O)c(=O)c1 [Example 8]	considerably better penetration capacity than comparison compounds 1-3
